Test results as given in article PMC11405525.
Results are given in words; binding and its absence hold for the method and conditions named. In cells and extracts the contact can be indirect. Some entries that bind do so weakly or less than the wild type.

The chains behind the UniProt entries cited, without tags or fusion partners.
UniProt P61289: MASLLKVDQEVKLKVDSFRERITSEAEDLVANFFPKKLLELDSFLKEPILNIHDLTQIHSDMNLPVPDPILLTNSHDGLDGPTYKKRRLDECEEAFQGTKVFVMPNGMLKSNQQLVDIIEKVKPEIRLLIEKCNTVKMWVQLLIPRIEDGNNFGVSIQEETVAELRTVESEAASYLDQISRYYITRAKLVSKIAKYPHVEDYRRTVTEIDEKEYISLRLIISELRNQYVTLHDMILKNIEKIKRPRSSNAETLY
UniProt P20700: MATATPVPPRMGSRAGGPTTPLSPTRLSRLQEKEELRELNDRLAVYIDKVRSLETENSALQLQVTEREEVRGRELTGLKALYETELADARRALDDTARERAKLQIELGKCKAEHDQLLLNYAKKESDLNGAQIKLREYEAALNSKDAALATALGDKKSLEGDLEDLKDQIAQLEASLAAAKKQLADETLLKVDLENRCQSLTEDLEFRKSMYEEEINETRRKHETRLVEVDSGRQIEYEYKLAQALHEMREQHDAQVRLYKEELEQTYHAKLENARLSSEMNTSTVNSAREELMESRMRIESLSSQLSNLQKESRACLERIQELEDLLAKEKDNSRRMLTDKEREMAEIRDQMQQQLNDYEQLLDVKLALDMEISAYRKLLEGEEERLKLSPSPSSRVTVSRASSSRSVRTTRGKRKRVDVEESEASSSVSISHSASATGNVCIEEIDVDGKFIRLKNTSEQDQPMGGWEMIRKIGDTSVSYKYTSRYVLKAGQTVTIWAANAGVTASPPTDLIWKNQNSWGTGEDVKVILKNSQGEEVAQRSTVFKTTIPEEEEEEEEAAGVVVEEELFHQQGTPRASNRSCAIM

Key:
[1] = molecular target: T1, PQBP3/NOL7 (polyglutamine binding protein 3; nucleolar protein 7), endogenous (human (endogenous in HeLa)) (UniProt Q9UMY1); assay: co-IP; nontransfected HeLa cells, endogenous proteins, with or without 150 uM hydrogen peroxide for 24 h; lysis and washes in RIPA buffer (10 mM Tris-HCl pH 7.5, 150 mM NaCl, 1 mM EDTA, 1% Triton X-100, 0.1% SDS, 0.1% deoxycholate); IP with antibody and protein G sepharose, 4 °C; western blot
T1 sequence: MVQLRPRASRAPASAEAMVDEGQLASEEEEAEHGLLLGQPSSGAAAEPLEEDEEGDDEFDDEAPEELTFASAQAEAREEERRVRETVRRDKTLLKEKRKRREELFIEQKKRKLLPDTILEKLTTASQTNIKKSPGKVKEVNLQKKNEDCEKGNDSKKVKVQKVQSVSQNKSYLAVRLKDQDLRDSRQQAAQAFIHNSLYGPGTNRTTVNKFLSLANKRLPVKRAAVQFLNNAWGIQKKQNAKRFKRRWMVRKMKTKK

[2] = molecular target: PSME3 (proteasome activator complex subunit 3) (human (endogenous in HeLa)) (UniProt P61289); assay: co-IP; HeLa cells transfected with pEGFP-C1-PQBP3 or pEGFP-C1, with or without 150 uM hydrogen peroxide (senescence induction); lysis and washes in TNE buffer (10 mM Tris-HCl pH 7.5, 150 mM NaCl, 1 mM EDTA, 1% Nonidet P-40); IP with anti-GFP, anti-PSME3 or anti-Lamin B1 antibody and Protein-G Sepharose, 4 °C; western blot
[3] = molecular target: PSME3 (proteasome activator complex subunit 3) (human (endogenous in HeLa)) (UniProt P61289); assay: co-IP; nontransfected HeLa cells, endogenous proteins, with or without 150 uM hydrogen peroxide for 24 h; lysis and washes in RIPA buffer (10 mM Tris-HCl pH 7.5, 150 mM NaCl, 1 mM EDTA, 1% Triton X-100, 0.1% SDS, 0.1% deoxycholate); IP with antibody and protein G sepharose, 4 °C; western blot

Row | binding [1] | binding [2] | binding [3] | Substance
1 | binds |  |  | PSME3 (proteasome activator complex subunit 3) (from UniProt P61289 1-254)
2 |  | binds | binds | Lamin B1 (from UniProt P20700 1-586)
